Experimental data as given in patent US20160291016A1.

Protein sequences, listed by entry. Tags and fused reporters are not part of them. Lines headed by an entry give the natural chain unless they say otherwise; changes in a name come on top. Residues count along the entry.
UniProt P11688: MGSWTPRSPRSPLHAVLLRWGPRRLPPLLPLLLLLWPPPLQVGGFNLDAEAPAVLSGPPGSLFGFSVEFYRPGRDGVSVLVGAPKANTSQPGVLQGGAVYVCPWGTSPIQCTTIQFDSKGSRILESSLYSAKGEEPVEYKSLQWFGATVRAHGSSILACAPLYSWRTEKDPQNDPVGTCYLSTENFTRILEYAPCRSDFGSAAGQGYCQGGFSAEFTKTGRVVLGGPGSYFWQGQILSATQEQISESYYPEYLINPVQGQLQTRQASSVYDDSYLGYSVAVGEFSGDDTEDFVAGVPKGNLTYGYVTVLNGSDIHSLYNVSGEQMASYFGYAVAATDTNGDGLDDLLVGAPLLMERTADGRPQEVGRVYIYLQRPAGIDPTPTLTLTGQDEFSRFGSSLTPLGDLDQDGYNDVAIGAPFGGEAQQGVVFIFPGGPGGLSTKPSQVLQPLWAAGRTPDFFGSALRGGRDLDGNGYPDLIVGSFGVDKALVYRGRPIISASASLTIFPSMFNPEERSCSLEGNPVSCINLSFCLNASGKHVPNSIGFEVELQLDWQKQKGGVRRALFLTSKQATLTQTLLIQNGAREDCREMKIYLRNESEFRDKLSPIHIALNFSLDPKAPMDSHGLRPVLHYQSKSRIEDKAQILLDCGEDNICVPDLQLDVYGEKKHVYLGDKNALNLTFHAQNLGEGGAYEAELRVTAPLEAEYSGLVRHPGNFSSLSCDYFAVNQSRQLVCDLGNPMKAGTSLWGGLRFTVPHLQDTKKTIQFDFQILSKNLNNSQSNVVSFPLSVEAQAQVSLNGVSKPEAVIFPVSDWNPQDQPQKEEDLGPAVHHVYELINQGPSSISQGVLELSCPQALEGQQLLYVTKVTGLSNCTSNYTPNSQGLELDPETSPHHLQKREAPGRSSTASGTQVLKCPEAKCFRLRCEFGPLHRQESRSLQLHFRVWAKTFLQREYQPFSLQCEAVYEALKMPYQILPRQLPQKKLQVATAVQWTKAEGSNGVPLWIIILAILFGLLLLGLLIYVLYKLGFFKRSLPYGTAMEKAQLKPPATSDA
UniProt P43406: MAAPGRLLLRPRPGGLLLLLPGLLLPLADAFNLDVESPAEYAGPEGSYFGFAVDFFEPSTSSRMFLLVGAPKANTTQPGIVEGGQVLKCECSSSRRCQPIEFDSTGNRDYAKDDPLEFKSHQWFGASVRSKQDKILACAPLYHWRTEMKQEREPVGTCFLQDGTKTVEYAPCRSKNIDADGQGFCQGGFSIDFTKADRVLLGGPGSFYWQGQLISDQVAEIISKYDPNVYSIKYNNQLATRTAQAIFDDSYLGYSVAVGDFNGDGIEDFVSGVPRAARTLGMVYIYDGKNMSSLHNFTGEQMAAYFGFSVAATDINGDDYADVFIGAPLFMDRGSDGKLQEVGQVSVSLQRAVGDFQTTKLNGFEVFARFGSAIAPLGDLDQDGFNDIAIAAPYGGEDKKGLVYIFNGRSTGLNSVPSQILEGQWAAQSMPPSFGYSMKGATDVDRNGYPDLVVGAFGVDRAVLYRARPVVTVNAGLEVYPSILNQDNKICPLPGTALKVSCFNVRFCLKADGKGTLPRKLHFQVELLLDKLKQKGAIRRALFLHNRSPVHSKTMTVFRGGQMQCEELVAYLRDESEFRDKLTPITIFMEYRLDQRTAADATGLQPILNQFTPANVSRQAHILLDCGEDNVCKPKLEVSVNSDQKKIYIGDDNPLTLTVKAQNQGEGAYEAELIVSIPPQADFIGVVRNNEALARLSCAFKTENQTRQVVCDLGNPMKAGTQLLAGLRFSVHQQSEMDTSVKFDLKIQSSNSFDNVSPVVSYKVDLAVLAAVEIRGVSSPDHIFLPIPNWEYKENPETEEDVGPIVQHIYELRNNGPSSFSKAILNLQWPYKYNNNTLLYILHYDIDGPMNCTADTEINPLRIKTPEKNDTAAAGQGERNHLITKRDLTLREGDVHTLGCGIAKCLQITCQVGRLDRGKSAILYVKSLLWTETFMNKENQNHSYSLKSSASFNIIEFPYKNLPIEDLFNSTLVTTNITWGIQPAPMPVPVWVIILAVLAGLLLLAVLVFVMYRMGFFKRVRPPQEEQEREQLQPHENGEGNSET
UniProt P09055: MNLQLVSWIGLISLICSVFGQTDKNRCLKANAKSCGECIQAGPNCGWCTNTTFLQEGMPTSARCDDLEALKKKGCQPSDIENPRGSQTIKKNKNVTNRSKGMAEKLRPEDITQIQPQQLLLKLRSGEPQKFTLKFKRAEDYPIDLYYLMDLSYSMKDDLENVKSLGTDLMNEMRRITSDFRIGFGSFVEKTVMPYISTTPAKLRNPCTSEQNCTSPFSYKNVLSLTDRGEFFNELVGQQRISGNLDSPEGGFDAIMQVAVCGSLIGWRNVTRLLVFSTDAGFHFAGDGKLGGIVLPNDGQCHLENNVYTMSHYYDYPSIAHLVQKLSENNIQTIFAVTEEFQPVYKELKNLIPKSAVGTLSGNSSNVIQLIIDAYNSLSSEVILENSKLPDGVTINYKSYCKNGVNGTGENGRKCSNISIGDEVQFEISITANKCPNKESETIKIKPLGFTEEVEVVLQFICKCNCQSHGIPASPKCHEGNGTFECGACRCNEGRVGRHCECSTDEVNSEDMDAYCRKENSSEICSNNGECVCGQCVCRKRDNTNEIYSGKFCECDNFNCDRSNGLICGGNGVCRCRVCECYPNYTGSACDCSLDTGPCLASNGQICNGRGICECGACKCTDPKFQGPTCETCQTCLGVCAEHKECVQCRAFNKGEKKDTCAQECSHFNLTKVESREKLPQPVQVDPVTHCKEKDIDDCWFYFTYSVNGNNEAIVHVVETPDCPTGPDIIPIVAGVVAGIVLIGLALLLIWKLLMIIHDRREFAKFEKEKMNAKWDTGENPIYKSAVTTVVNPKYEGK
UniProt O54890: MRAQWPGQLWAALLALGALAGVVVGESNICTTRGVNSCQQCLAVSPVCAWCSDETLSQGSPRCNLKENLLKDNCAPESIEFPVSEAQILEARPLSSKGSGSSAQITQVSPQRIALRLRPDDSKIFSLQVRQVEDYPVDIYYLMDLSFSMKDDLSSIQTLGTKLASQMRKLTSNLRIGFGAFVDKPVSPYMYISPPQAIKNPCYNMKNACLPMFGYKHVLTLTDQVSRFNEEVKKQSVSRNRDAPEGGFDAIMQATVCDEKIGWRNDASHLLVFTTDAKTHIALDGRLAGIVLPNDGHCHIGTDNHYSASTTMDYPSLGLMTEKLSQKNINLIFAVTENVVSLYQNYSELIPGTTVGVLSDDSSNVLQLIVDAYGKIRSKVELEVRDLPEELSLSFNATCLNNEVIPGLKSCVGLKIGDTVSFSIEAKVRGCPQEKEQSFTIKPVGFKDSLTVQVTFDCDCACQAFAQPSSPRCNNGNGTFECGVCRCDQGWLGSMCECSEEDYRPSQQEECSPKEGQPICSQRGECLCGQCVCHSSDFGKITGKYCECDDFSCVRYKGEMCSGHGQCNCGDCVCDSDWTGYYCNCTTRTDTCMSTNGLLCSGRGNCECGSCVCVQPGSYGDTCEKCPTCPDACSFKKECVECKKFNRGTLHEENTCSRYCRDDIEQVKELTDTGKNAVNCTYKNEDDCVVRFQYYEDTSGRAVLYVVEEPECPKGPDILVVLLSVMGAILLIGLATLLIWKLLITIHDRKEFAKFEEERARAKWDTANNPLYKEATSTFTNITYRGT
UniProt O70309: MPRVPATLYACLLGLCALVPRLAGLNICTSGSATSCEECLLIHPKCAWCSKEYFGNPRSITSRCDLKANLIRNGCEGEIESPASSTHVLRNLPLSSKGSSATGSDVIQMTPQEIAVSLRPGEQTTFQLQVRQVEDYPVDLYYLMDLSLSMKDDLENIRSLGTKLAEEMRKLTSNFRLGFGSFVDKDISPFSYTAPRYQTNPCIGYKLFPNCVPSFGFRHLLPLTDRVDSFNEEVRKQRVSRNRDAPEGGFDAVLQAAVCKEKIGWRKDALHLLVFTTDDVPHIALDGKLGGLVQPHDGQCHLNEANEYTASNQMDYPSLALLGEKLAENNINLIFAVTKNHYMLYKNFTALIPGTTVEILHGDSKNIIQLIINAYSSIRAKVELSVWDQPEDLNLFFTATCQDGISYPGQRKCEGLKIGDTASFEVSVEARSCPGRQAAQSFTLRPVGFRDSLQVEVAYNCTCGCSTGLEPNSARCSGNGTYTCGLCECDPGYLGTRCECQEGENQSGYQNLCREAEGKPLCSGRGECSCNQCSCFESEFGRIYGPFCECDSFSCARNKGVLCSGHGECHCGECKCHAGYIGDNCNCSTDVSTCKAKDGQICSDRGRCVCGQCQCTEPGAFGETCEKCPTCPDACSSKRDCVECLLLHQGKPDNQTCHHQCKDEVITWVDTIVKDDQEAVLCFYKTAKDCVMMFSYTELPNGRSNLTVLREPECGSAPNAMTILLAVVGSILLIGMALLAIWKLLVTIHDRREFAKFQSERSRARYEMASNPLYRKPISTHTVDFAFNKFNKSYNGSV
UniProt P10923, residues 17-294: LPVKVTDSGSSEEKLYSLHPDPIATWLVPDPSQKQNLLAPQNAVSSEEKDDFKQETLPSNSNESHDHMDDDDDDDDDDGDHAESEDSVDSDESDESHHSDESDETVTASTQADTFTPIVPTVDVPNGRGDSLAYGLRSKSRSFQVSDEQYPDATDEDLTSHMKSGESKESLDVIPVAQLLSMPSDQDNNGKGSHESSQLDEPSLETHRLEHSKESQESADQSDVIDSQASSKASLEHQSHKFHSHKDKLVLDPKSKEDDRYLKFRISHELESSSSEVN

Key:
[1] = target: integrin α5 (OPN receptor subunit) of mouse osteoblasts (mouse) (UniProt P11688); test: co-immunoprecipitation from mouse osteoblast lysates with receptor antibody, Western blot for OPN
[2] = target: integrin αv (OPN receptor subunit) of mouse osteoblasts (mouse) (UniProt P43406); test: as above
[3] = target: integrin β1 (OPN receptor subunit) of mouse osteoblasts (mouse) (UniProt P09055); test: as above
[4] = target: integrin β3 (OPN receptor subunit) of mouse osteoblasts (mouse) (UniProt O54890); test: as above
[5] = target: integrin β5 (OPN receptor subunit) of mouse osteoblasts (mouse) (UniProt O70309); test: as above
[6] = target: integrin α5 (OPN receptor subunit) of mouse osteoblasts (mouse) (UniProt P11688); test: co-immunoprecipitation from mouse osteoblast lysates with receptor subunit antibody, Western blot for OPN (FIG. 5C)
[7] = target: integrin αv (OPN receptor subunit) of mouse osteoblasts (mouse) (UniProt P43406); test: as above
[8] = target: integrin β1 (OPN receptor subunit) of mouse osteoblasts (mouse) (UniProt P09055); test: as above
[9] = target: integrin β3 (OPN receptor subunit) of mouse osteoblasts (mouse) (UniProt O54890); test: as above
[10] = target: integrin β5 (OPN receptor subunit) of mouse osteoblasts (mouse) (UniProt O70309); test: as above

- binding [1]: binds
- binding [2]: binds
- binding [3]: binds
- binding [4]: binds
- binding [5]: binds
- binding [6]: binds
- binding [7]: binds
- binding [8]: binds
- binding [9]: binds
- binding [10]: binds
Substance: osteopontin (OPN), endogenous, in lysates of mouse osteoblasts (from UniProt P10923 17-294) (ligand)

These are yes or no findings as the source states them, for the method shown. In cells and extracts the contact can be indirect. Binding can be weak; no strength is given.
